This list was built around the results that the source calls inconclusive (neither active nor inactive); the mix of calls is not that of the screen. For part of these data: Potencies of inconclusive entries are doubtful fits and often do not repeat. The source made the active and inactive calls. The call rests on the fitted dose curve; in most records, active means well fitted curve in the direction sought with a large enough effect; inconclusive means small, poorly fitted or top-dose-only effect, or another doubt; inactive means no such curve, though single readings can be large; an effect the other way counts as inactive or inconclusive.
Legend:
[1] = Quantitative High-Throughput drug screen in 47 multiple myeloma cell lines against the NCATS MIPE library collection: MOLP8_DSMZ cell viability assay (AID 1918977); further: nearly all actives have a fitted effect of over 45% in size;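 on viability (% of control): 100% = DMSO-only wells and 0% = media-only wells without cells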
Procedure, shortened: (§1)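 Readout: median RLU from CellTiter-Glo after 5 min at room temperature. Preceding step was 48 h drug treatment of 500 cells/well at 37 °C, 5% CO2, with DMSO-only and media-only control wells.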

[2] = Quantitative High-Throughput drug screen in 47 multiple myeloma cell lines against the NCATS MIPE library collection: NCIH929_DSMZ cell viability assay (AID 1918978); settings: NCI-H929 myeloma viability, CellTiter-Glo ATP, 48 h; viability, % of control: at 45.8 µM (top of the series); further: nearly all actives have a fitted effect of over 35% in size
Procedure, shortened: as §1

[3] = Quantitative High-Throughput drug screen in 47 multiple myeloma cell lines against the NCATS MIPE library collection: MM1S_ATCC cell viability assay (AID 1918980); further: nearly all actives have a fitted effect of over 45% in size;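 on viability (% of control): 100% = wells with DMSO only and 0% = wells with media only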
Procedure, shortened: as §1

[4] = Quantitative High-Throughput drug screen in 47 multiple myeloma cell lines against the NCATS MIPE library collection: LP1_DSMZ cell viability assay (AID 1918982); further: nearly all actives have a fitted effect of over 35% in size
Procedure, shortened: as §1

[5] = Quantitative High-Throughput drug screen in 47 multiple myeloma cell lines against the NCATS MIPE library collection: KMS28PE_JCRB cell viability assay (AID 1918983); further: nearly all actives have a fitted effect of over 35% in size
Procedure, shortened: as §1

[6] = Quantitative High-Throughput drug screen in 47 multiple myeloma cell lines against the NCATS MIPE library collection: L363_DSMZ cell viability assay (AID 1918984); settings: L363 myeloma viability, CellTiter-Glo ATP luminescence, 48 h; viability (% of control): at 45.8 µM; further: nearly all actives have a fitted effect of over 40% in size
Procedure, shortened: as §1

[7] = Quantitative High-Throughput drug screen in 47 multiple myeloma cell lines against the NCATS MIPE library collection: OCIMY7_PLB cell viability assay (AID 1918987); settings: OCI-MY7 myeloma viability, CellTiter-Glo ATP, 48 h; viability (% of DMSO): at 45.8 µM unless noted; further: nearly all actives have a fitted effect of over 65% in size
Procedure, shortened: as §1

[8] = Quantitative High-Throughput drug screen in 47 multiple myeloma cell lines against the NCATS MIPE library collection: OCIMY5_PLB cell viability assay (AID 1918988); settings: OCI-MY5 myeloma viability, ATP luminescence, 48 h; viability, % of control: at 45.8 µM; further: nearly all actives have a fitted effect of over 65% in size;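 on viability, % of control: 100% = DMSO-treated wells and 0% = wells with media alone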
Procedure, shortened: as §1

[9] = Quantitative High-Throughput drug screen in 47 multiple myeloma cell lines against the NCATS MIPE library collection: OPM1_PLB cell viability assay (AID 1918989); settings: CellTiter-Glo, 48 h; viability (% of control): at 45.8 µM; further: nearly all actives have a fitted effect of over 40% in size;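 on viability (% of control): 100% = DMSO-only wells and 0% = media-only wells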
Procedure, shortened: as §1

[10] = Quantitative High-Throughput drug screen in 47 multiple myeloma cell lines against the NCATS MIPE library collection: SKMM1_PLB cell viability assay (AID 1919863); settings: SKMM1 myeloma viability, CellTiter-Glo ATP, 48 h; viability: hits give low values; further: nearly all actives have a fitted effect of over 35% in size
Procedure, shortened: as §1

[11] = Quantitative High-Throughput drug screen in 47 multiple myeloma cell lines against the NCATS MIPE library collection: U266_ATCC cell viability assay (AID 1919864); further: nearly all actives have a fitted effect of over 35% in size;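 on viability (% of DMSO control): 0% = media-only wells without cells and 100% = DMSO-only wells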
Procedure, shortened: as §1

[12] = Quantitative High-Throughput drug screen in 47 multiple myeloma cell lines against the NCATS MIPE library collection: VP6_DJ cell viability assay (AID 1919867); settings: ATP luminescence, 48 h; viability (% of DMSO): at 45.8 µM; further: nearly all actives have a fitted effect of over 40% in size;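 on viability (% of DMSO): 100% = DMSO-only wells and 0% = wells with media alone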
Procedure, shortened: as §1

[13] = Quantitative High-Throughput drug screen in 47 multiple myeloma cell lines against the NCATS MIPE library collection: UTMC2_PLB cell viability assay (AID 1919868); settings: CellTiter-Glo ATP luminescence, 48 h; viability (% of DMSO control): at 45.8 µM; further: nearly all actives have a fitted effect of over 55% in size;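 on viability (% of DMSO control): 100% = DMSO-only wells and 0% = media-only wells without cells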
Procedure, shortened: as §1

[14] = Quantitative High-Throughput drug screen in 47 multiple myeloma cell lines against the NCATS MIPE library collection: PE2_PLB cell viability assay (AID 1919869); settings: PE2_PLB myeloma cells viability, ATP luminescence, 48 h; viability (% of control): at 45.8 µM; further: nearly all actives have a fitted effect of over 35% in size;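 on viability (% of control): 100% = DMSO-only wells and 0% = cell-free media-only wells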
Procedure, shortened: as §1

[15] = Quantitative High-Throughput drug screen in 47 multiple myeloma cell lines against the NCATS MIPE library collection: PCM6_Riken cell viability assay (AID 1919870); settings: CellTiter-Glo ATP, 48 h; viability (% of control): at 45.8 µM; further: nearly all actives have a fitted effect of over 30% in size
Procedure, shortened: as §1

[16] = Quantitative High-Throughput drug screen in 47 multiple myeloma cell lines against the NCATS MIPE library collection: OCIMY1_PLB cell viability assay (AID 1918979); further: nearly all actives have a fitted effect of over 35% in size;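 on viability: 100% = DMSO-only wells and 0% = cell-free media-only wells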
Procedure, shortened: as §1

[17] = Quantitative High-Throughput drug screen in 47 multiple myeloma cell lines against the NCATS MIPE library collection: MM1R_ATCC cell viability assay (AID 1918981); further: nearly all actives have a fitted effect of over 35% in size
Procedure, shortened: as §1

[18] = Quantitative High-Throughput drug screen in 47 multiple myeloma cell lines against the NCATS MIPE library collection: KMS34_JCRB cell viability assay (AID 1918985); settings: KMS34 myeloma viability, CellTiter-Glo ATP luminescence, 48 h; viability, percent of control: at 45.8 µM; further: nearly all actives have a fitted effect of over 40% in size;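 on viability, percent of control: 100% = DMSO-only wells and 0% = media-only wells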
Procedure, shortened: as §1

[19] = Quantitative High-Throughput drug screen in 47 multiple myeloma cell lines against the NCATS MIPE library collection: XG1_PLB cell viability assay (AID 1919866); further: nearly all actives have a fitted effect of over 35% in size
Procedure, shortened: as §1

[20] = Quantitative High-Throughput drug screen in 47 multiple myeloma cell lines against the NCATS MIPE library collection: XG6_PLB cell viability assay (AID 1919865); settings: XG6 myeloma viability, CellTiter-Glo ATP luminescence, 48 h; viability (% of control): at 45.8 µM; further: nearly all actives have a fitted effect of over 40% in size;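 on viability (% of control): 100% = DMSO-only wells and 0% = media-only wells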
Procedure, shortened: as §1
Potency means the concentration at half of the fitted maximal effect.

COc1cc(F)c(C(C)C)cc1-c1ccc(C(F)(F)F)cc1CN1C(=O)O[C@H](c2cc(C(F)(F)F)cc(C(F)(F)F)c2)[C@@H]1C
inconclusive: Potency [1] 1.18 µM [cytotoxic, full curve, poor fit] | Potency [3] 29.6 µM [cytotoxic, single point] | Potency [5] 5.26 µM [cytotoxic, partial curve, poor fit] | Potency [6] 1.32 µM [cytotoxic, full curve, poor fit] | Potency [7] 23.5 µM [cytotoxic, single point] | Potency [8] 18.7 µM [cytotoxic, partial curve, poor fit] | Potency [10] 1.66 µM [cytotoxic, full curve, poor fit] | Potency [11] 23.5 µM [cytotoxic, single point] | Potency [12] 20.9 µM [cytotoxic, partial curve, poor fit] | Potency [13] 0.0187 µM [cytotoxic, full curve, poor fit] | Potency [14] 4.69 µM [cytotoxic, full curve, poor fit]
active: Potency [4] 0.662 µM | Potency [15] 23.5 µM
inactive: Potency [2] | Potency [9]

CC12CC3CC(C)(C1)CC(N)(C3)C2
active: Potency [19] 23.5 µM
inconclusive: Potency [1] 26.4 µM [rising, single point] | Potency [2] 37.2 µM [cytotoxic, single point] | Potency [17] 29.6 µM [cytotoxic, single point] | Potency [6] 3.72 µM [cytotoxic, partial curve, poor fit] | Potency [18] 37.2 µM [rising, single point] | Potency [8] 33.2 µM [cytotoxic, single point] | Potency [9] 29.6 µM [cytotoxic, single point] | Potency [11] 0.0372 µM [rising, full curve, poor fit] | Potency [13] 18.7 µM [cytotoxic, partial curve, poor fit] | Potency [14] 29.6 µM [cytotoxic, single point]
inactive: Potency [16] | Potency [4] | viability [10] 125%

O=C1Nc2ccc(I)cc2C1=Cc1cc(Br)c(O)c(Br)c1
inconclusive: Potency [1] 0.0332 µM [rising, full curve, poor fit] | Potency [2] 37.2 µM [cytotoxic, single point] | Potency [3] 5.26 µM [cytotoxic, partial curve, poor fit] | Potency [4] 37.2 µM [cytotoxic, single point] | Potency [5] 16.6 µM [cytotoxic, partial curve, poor fit] | Potency [6] 5.26 µM [cytotoxic, full curve] | Potency [7] 14.8 µM [cytotoxic, partial curve, poor fit] | Potency [12] 0.0012 µM [cytotoxic, full curve, poor fit] | Potency [15] 37.2 µM [cytotoxic, single point]
active: Potency [8] 8.33 µM | Potency [13] 14.8 µM
inactive: Potency [16] | Potency [11]

C=C1C[C@@]2(O)O[C@@]3(C[C@H]2C(C)C)[C@H](C)CC[C@H]13
inactive: Potency [1] | Potency [2] | Potency [16] | Potency [4] | Potency [8] | viability [10] 114% | Potency [11] | Potency [20] | Potency [12] | Potency [13]
inconclusive: Potency [6] 0.003 µM [rising, full curve, poor fit] | Potency [7] 0.235 µM [rising, full curve, poor fit]

Nc1cccc2c1C(=O)N(C1CCC(=O)NC1=O)C2=O (stereo unspecified)
inconclusive: Potency [2] 1.32 µM [cytotoxic, partial curve] | Potency [7] 0.0026 µM [cytotoxic, full curve, poor fit] | Potency [9] 0.372 µM [cytotoxic, partial curve, poor fit] | Potency [10] 0.118 µM [cytotoxic, full curve, poor fit] | Potency [19] 2.64 µM [cytotoxic, partial curve] | Potency [12] 0.0053 µM [cytotoxic, full curve, poor fit]
inactive: Potency [1] | Potency [6] | Potency [11] | Potency [20] | Potency [14]
active: Potency [3] 0.526 µM | Potency [18] 0.0021 µM

CCOC(=O)C1=C[C@@H](OC(CC)CC)[C@H](NC(C)=O)[C@@H](N)C1
inactive: Potency [1] | Potency [2] | Potency [16] | Potency [5] | Potency [18] | viability [10] 108% | Potency [20] | Potency [19] | Potency [12]
inconclusive: Potency [3] 0.0059 µM [rising, full curve, poor fit] | Potency [7] 0.001 µM [cytotoxic] | Potency [8] 0.0012 µM [rising, full curve, poor fit] | Potency [11] 1.18 µM [rising, full curve] | Potency [13] 4.18 µM [rising, full curve, poor fit]

O=C(Nc1ccc(Oc2ccnc3[nH]ccc23)c(F)c1)c1cccn(-c2ccc(F)cc2)c1=O
inactive: Potency [3] | Potency [4] | Potency [13]
active: Potency [12] 20.9 µM | Potency [15] 23.5 µM
inconclusive: Potency [1] 37.2 µM [cytotoxic, single point] | Potency [2] 33.2 µM [cytotoxic, single point] | Potency [5] 0.0053 µM [rising, full curve, poor fit] | Potency [6] 0.0105 µM [cytotoxic, full curve, poor fit] | Potency [7] 33.2 µM [cytotoxic, single point] | Potency [8] 23.5 µM [cytotoxic, partial curve, poor fit]

COc1cc(Cl)cn2c(-c3cccc(NC4CNC4)n3)cnc12
active: Potency [10] 9.35 µM | Potency [12] 14.8 µM
inconclusive: Potency [1] 37.2 µM [cytotoxic, single point] | Potency [2] 23.5 µM [cytotoxic, partial curve] | Potency [16] 0.0013 µM [cytotoxic, full curve, poor fit] | Potency [3] 7.43 µM [cytotoxic, full curve] | Potency [4] 0.001 µM [cytotoxic] | Potency [6] 5.26 µM [cytotoxic, full curve] | Potency [18] 0.0019 µM [cytotoxic, full curve, poor fit] | Potency [9] 26.4 µM [cytotoxic, single point] | Potency [11] 33.2 µM [cytotoxic, single point] | Potency [14] 14.8 µM [cytotoxic, partial curve]

CCc1cc(C(N)=S)ccn1
inconclusive: Potency [2] 37.2 µM [cytotoxic, single point] | Potency [3] 37.2 µM [cytotoxic, single point] | Potency [7] 0.0662 µM [rising, full curve, poor fit] | Potency [8] 0.0372 µM [cytotoxic, full curve, poor fit] | Potency [10] 0.332 µM [rising, full curve, poor fit] | Potency [11] 0.0118 µM [rising, full curve] | Potency [12] 11.8 µM [cytotoxic, single point] | Potency [14] 0.0023 µM [rising, full curve, poor fit]
inactive: Potency [1] | Potency [5] | Potency [6] | Potency [18] | Potency [9] | Potency [20]

C[C@@H]1COC(Nc2ccc3ncnc(Nc4ccc(OCc5nccs5)c(Cl)c4)c3c2)=N1
inconclusive: Potency [1] 37.2 µM [cytotoxic, partial curve, poor fit] | Potency [16] 33.2 µM [cytotoxic, single point] | Potency [17] 37.2 µM [cytotoxic, single point] | Potency [5] 29.6 µM [cytotoxic, single point] | Potency [18] 16.6 µM [cytotoxic, partial curve] | Potency [7] 4.18 µM [cytotoxic, partial curve, poor fit] | Potency [10] 26.4 µM [cytotoxic, single point]
active: Potency [2] 3.32 µM | Potency [8] 2.96 µM | Potency [9] 16.6 µM | Potency [20] 0.0372 µM | Potency [12] 3.72 µM | Potency [13] 2.96 µM | Potency [14] 4.18 µM

O=C(CCCN1CCN(c2ccc(F)cc2)CC1)NC1c2ccccc2CSc2ccccc21 (stereo unspecified)
active: Potency [4] 2.96 µM | Potency [5] 11.8 µM | Potency [6] 4.69 µM | Potency [19] 11.8 µM
inconclusive: Potency [1] 8.33 µM [cytotoxic, full curve, poor fit] | Potency [2] 11.8 µM [cytotoxic, partial curve] | Potency [16] 16.6 µM [cytotoxic, partial curve] | Potency [18] 20.9 µM [cytotoxic, partial curve, poor fit] | Potency [7] 16.6 µM [cytotoxic, partial curve, poor fit]
